In paper PMC6033896, “Discovery of Mcl-1 inhibitors from integrated high throughput and virtual screening” (Scientific Reports, 2018):
No constants are given. Whether binding was seen depends on the method and setting. In cells and extracts the contact can be indirect. Some results given as binding are weak or reduced against the parent protein; the word gives no strength.

Chains of the proteins cited; added tags and fusions are not shown.
UniProt Q07820: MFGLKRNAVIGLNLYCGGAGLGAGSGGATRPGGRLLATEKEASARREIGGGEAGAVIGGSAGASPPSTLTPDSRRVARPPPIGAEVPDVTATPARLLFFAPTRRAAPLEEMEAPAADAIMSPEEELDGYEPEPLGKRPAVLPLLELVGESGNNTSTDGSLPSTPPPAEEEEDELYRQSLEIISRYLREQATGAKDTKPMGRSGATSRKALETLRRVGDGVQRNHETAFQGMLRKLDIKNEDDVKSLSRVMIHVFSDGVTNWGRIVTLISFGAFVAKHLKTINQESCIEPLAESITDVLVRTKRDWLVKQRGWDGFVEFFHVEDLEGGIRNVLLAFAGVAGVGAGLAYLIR

Molecular target: T1, biotinylated Noxa peptide (18–43 residues) (UniProt Q13794)
T1 sequence (peptide, biotin, position not stated): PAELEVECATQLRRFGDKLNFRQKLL
Test: pull-down; biotinylated Noxa peptide incubated overnight at 4 °C with pre-cleared 2LMP lysate (1 mg/mL, CHAPS buffer); pulled down with agarose beads; western blot for Mcl-1; only the target purified

binding: binds
Substance: endogenous Mcl-1 (2LMP cells) (from UniProt Q07820 1-350)
